Values of other authors, collected in patent US9408839B2, “Antipsychotic treatment based on DRD2 or ANKK1 SNP genotype” (Vanda Pharmaceuticals, Inc., priority 2009, dated 2016).
At least one structure is not confirmed: it was looked up by name or label, or the drawing left a doubt.

Test system: schizophrenic patients
Details: rs6275 SNP; cited from earlier work

SMILES: CN1CCN(C2=Nc3cc(Cl)ccc3Nc3ccccc32)CC1 [clozapine]
- improvement on treatment, C/C genotype versus non-C/C genotype: greater improvement
